These are yes or no findings as the source states them, for the method shown. In cells and extracts the contact can be indirect. Some binding calls cover weakened binding; strength is not graded here.
Target: HA epitope-tagged full-length NOTCH3 (human) (UniProt Q9UM47)
Assay: cross-linking + co-IP; cell surface ligand–receptor binding assay: 293T cells stably expressing HA epitope-tagged receptor incubated with HIS epitope-tagged ligand 1 h at 4 °C, with or without peptides (10 μM), cross-linked with DSS and BS3, lysed, HA immunoprecipitation, Western blot; only the binder purified

Sequences of proteins named here, by UniProt entry; tags and fusion partners are left off. Residues count along the entry.
UniProt Q9UM47, residues 40-2321: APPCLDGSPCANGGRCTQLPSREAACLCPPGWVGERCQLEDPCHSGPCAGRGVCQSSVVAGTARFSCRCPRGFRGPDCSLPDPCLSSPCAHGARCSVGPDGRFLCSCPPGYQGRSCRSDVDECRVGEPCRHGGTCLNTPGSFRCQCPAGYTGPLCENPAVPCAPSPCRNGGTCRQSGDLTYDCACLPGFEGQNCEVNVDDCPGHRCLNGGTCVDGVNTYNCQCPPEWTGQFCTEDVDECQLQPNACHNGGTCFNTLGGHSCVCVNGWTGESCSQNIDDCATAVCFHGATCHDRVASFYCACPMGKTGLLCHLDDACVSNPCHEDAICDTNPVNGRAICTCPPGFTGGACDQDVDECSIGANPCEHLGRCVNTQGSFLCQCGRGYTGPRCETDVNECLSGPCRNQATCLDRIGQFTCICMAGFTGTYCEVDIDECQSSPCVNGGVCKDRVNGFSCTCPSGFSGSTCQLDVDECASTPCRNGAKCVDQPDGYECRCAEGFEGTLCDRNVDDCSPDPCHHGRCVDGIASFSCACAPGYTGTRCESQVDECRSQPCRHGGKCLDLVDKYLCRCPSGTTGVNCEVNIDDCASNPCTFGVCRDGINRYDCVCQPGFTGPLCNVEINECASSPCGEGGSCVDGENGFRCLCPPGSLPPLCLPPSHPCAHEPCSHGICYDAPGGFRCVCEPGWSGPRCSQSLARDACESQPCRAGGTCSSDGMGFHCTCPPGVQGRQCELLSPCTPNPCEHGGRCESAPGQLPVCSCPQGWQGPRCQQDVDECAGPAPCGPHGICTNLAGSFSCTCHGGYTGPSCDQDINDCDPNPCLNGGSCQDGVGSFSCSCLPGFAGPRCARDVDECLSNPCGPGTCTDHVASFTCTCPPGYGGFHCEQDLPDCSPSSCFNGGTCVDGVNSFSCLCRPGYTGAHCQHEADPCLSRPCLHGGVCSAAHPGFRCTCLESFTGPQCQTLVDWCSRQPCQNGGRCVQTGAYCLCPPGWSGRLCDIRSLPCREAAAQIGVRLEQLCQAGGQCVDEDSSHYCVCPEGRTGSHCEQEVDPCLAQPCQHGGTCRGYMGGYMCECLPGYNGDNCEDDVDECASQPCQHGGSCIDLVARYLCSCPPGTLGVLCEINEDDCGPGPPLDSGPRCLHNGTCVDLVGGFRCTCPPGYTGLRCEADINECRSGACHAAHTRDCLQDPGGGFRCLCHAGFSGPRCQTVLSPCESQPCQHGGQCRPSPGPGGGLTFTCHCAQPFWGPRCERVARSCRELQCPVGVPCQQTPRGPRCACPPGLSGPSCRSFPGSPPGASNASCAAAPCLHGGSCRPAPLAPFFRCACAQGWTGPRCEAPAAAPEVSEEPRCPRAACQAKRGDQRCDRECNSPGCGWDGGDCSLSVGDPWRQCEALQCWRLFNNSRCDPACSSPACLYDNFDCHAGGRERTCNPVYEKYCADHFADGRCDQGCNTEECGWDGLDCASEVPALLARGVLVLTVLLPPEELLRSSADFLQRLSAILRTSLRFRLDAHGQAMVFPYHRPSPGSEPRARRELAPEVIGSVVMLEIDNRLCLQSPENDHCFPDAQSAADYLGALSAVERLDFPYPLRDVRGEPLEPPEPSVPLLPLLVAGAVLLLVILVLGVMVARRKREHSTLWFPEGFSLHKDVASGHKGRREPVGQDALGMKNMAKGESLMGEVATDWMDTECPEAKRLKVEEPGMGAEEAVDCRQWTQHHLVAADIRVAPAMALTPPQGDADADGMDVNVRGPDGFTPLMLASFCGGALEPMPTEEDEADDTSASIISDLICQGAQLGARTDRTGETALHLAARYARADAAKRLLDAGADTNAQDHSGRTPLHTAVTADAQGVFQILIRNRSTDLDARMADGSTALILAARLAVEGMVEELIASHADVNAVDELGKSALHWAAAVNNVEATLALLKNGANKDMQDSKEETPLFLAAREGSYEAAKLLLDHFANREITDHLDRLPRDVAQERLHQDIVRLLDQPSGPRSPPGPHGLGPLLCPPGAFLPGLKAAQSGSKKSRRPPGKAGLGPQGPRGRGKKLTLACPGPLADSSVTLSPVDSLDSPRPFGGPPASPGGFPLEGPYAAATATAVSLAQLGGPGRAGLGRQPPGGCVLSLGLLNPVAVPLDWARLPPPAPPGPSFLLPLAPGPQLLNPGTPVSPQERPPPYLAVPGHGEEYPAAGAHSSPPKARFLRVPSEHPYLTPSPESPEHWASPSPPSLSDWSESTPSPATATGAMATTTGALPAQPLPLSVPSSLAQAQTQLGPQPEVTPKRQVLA

binding: binds
Binder: EKYCADHFADGR [N34 peptide]

— PMC13193388, “Dimerization‐dependent NOTCH receptor transactivation unveils a class of highly selective NOTCH signalling inhibitors” (The Febs Journal, 2025)
